Assay results: PubChem BioAssay AID2417 (National Center for Advancing Translational Sciences (NCATS), 2010)
In all, about 140,000 compounds went through this assay and about 4,300 (3.1%) were called active. Inconclusive results, whose numbers are uncertain, are shown with a selection of clear calls.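 How the source made its calls: active means readout at or below -70, meaning at least 70% loss of cells showing the perinucleolar compartment, a nuclear body marking cancer cells; inconclusive means readout between -30 and a set limit; inactive means the rest.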

Experiment: High Content Assay for Compounds that inhibit the Assembly of the Perinucleolar Compartment;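 further: plate controls were DMSO wells for no effect and camptothecin positive control wells for full effect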
Details: PC3M PTB-GFP, PNC prevalence imaging, 16 h; at 10 µM; active compounds read low
How it was run: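 Compounds are pinned in duplicate onto adhered PC3M cells stably expressing GFP-tagged PTB and incubated 16 h at 37 C. Cells are then fixed, nuclei stained with Hoechst, and PNC-positive cells counted.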
With `CCOc1cccc(C(=O)N2CCCCC2c2cccnc2)c1` (centres undefined) the activity change (PNC), negative = inhibition was inconclusive: -40.7%. In the case of `COc1ccccc1OCCCCNCCO`, the activity change (PNC), negative = inhibition is reported as inactive: -28.1%. In the case of `COc1ccc(-c2noc(CCN3C(=O)c4ccccc4C3=O)n2)cc1OC`, the activity change (PNC), negative = inhibition is reported as inconclusive: -33.6%. For `COc1cc(C)c(N(C(C)=O)c2ccccc2)c(C)c1`, the activity change (PNC), negative = inhibition was inconclusive: -36.6%. In the case of `C=CCOC(=O)C(C#N)c1nc2ccccc2nc1N1CCN(c2ccccc2OCC)CC1` (centres undefined), the activity change (PNC), negative = inhibition is reported as inconclusive: -34.9%. With `C=CCn1cnc2c(c1=O)c1nc3ccccc3nc1n2/N=C/c1cccc(OC)c1` the activity change (PNC), negative = inhibition was inactive: 8.05%. With `O=C(NC1CCCC1)C(c1cccs1)N(CC1CCCO1)C(=O)Cc1cccs1` (centres undefined) the activity change (PNC), negative = inhibition was inconclusive: -50.2%. With `CC(C)N1CCc2c(sc(NC(=S)NC(=O)c3ccccc3)c2C#N)C1` the activity change (PNC), negative = inhibition was inconclusive: -57.7%. For `CCCCC(=O)Nc1ccc(NC(=O)CC)cc1OC`, the activity change (PNC), negative = inhibition was active: -83.9%. In the case of `COc1ccc2ccc3c(c2c1)N=C[C@]1(O3)N(C)c2ccccc2C1(C)C`, the activity change (PNC), negative = inhibition is reported as inactive: 100%. For `CCC/C(=N/NC(=O)c1cccc(Cl)c1)c1ccccc1`, the activity change (PNC), negative = inhibition was inactive: 17.4%. For `CC(C)(C)c1ccc(S(=O)(=O)N2CC(=O)Nc3ccccc32)cc1`, the activity change (PNC), negative = inhibition was inactive: -25.6%. For `O=C(Cn1cnc2ccccc2c1=O)NCC(=O)N1CCN(c2ccccn2)CC1`, the activity change (PNC), negative = inhibition was inconclusive: -35.6%. In the case of `O=C(NN=C1C2CC3CC(C2)CC1C3)c1cccs1`, the activity change (PNC), negative = inhibition is reported as inconclusive: -32.4%. In the case of `O=C(Nc1ccc2nn(-c3ccccc3)nc2c1)c1ccc2c(c1)OCCO2`, the activity change (PNC), negative = inhibition is reported as inconclusive: -40.7%. In the case of `Cc1cc(C)n2nc(SCN3C(=O)c4ccccc4C3=O)nc2n1`, the activity change (PNC), negative = inhibition is reported as inactive: 22.9%. In the case of `CCc1ccc(C2N3CC4([N+](=O)[O-])CN2CC([N+](=O)[O-])(C3)C4(C)C)cc1` (centres undefined), the activity change (PNC), negative = inhibition is reported as inconclusive: -40.7%. For `CCOC(=O)C1CCN(c2c(NCc3ccc(C(=O)NCCOC)cc3)c(=O)c2=O)CC1`, the activity change (PNC), negative = inhibition was inactive: 4.49%. With `CCOC(=O)C(C)Sc1ncnc2nc[nH]c12` (centres undefined) the activity change (PNC), negative = inhibition was inactive: -8.51%. For `COc1cc(NC(=O)CSc2nc3[nH]ncc3c(=O)n2-c2ccccc2C)cc(OC)c1OC`, the activity change (PNC), negative = inhibition was inconclusive: -50.2%. In the case of `COc1ccc(N(CC(=O)NCc2ccco2)S(C)(=O)=O)cc1`, the activity change (PNC), negative = inhibition is reported as inactive: -4.62%. In the case of `Cc1nc2ccccc2c(=O)n1CCN1CCOCC1`, the activity change (PNC), negative = inhibition is reported as inconclusive: -39.3%. In the case of `COc1cc(OC)cc(-c2nc3ccccc3c(=O)n2NC(=O)c2cccnc2Cl)c1`, the activity change (PNC), negative = inhibition is reported as inactive: -30%. For `CCC(NS(=O)(=O)c1ccc(C)cc1)C(=O)N1CCC2(O)CCCCC2C1` (centres undefined), the activity change (PNC), negative = inhibition was inconclusive: -70.2%. For `Cn1c(=O)c2c(ncn2CC(=O)OCC(=O)NC(c2ccccc2)c2ccccc2)n(C)c1=O`, the activity change (PNC), negative = inhibition was inconclusive: -38.6%. For `c1coc(-c2nc(-c3ccncc3)no2)c1`, the activity change (PNC), negative = inhibition was inconclusive: -53.5%. With `COc1ccccc1N1C(=O)CC(Sc2n[nH]c(-c3cccc(C)c3)n2)C1=O` (centres undefined) the activity change (PNC), negative = inhibition was inactive: 27.9%. For `CC(CC(=O)NC1CCCC1)c1ccccc1` (centres undefined), the activity change (PNC), negative = inhibition was inconclusive: -53.9%. With `Cc1c(C(=O)O)cccc1-n1c(C)cc(/C=N/NC(=O)c2cc3ccccc3o2)c1C` the activity change (PNC), negative = inhibition was inactive: -13.9%. For `Cc1nc2ccccc2c(=O)n1CCCO`, the activity change (PNC), negative = inhibition was inactive: 35.6%. For `COc1ccc(N2CCN(C(CNS(=O)(=O)c3cccs3)c3cccnc3)CC2)cc1` (centres undefined), the activity change (PNC), negative = inhibition was inactive: 11%. For `COCCNC(C)C(=O)C12CC3CC(CC(C3)C1)C2` (centres undefined), the activity change (PNC), negative = inhibition was inconclusive: -43.6%. For `CC(C)CC(=O)N1CCC(O)(CS(=O)(=O)Cc2ccccc2Cl)CC1`, the activity change (PNC), negative = inhibition was inconclusive: -52.4%. For `c1nc(N2CCCC2)c2[nH]cnc2n1`, the activity change (PNC), negative = inhibition was inactive: -6.56%. For `Cc1cc(/C=N/NC(=O)COc2cccc3cccnc23)c(C)n1-c1ccc(O)cc1`, the activity change (PNC), negative = inhibition was inconclusive: -37.6%. For `COC(=O)/C(C#N)=C1/SC=C(C)N1c1ccccc1`, the activity change (PNC), negative = inhibition was inconclusive: -70%. For `CCC(C)(C(=O)NC1CCCC1)N(C(=O)c1ccccn1)c1ccc(C)cc1` (centres undefined), the activity change (PNC), negative = inhibition was inconclusive: -71.2%. For `CCOC(=O)c1c(NC(=O)CC(C)C)sc(C(C)=O)c1C`, the activity change (PNC), negative = inhibition was active: -100%. With `CC(NC(=O)CSc1ncnc2nc[nH]c12)c1ccccc1` (centres undefined) the activity change (PNC), negative = inhibition was inconclusive: -36%. In the case of `O=C(CN1CCN(Cc2ccccc2)CC1)N/N=C\C=C/c1ccco1`, the activity change (PNC), negative = inhibition is reported as inactive: 32%. With `CC(=O)c1cccc(NC(=O)CCS(=O)(=O)c2cccc3nsnc23)c1` the activity change (PNC), negative = inhibition was inconclusive: -48%. For `Cc1c(NC(=O)c2cc3c(s2)-c2ccccc2OC3)cccc1[N+](=O)[O-]`, the activity change (PNC), negative = inhibition was inconclusive: -38.7%. With `CCn1cc(SCC(N)=O)c2ccccc21` the activity change (PNC), negative = inhibition was inconclusive: -39.5%. With `O=C(Nc1ccc(S(=O)(=O)N2CCc3ccccc3C2)cc1)C1CCCO1` (centres undefined) the activity change (PNC), negative = inhibition was inactive: -17.6%. For `COC(=O)C(NC(=O)c1ccco1)(Nc1cc(C)ccn1)C(F)(F)F` (centres undefined), the activity change (PNC), negative = inhibition was active: -100%. In the case of `Cc1cccc(OCC(O)CN2CC3(C)CC2CC(C)(C)C3)c1` (centres undefined), the activity change (PNC), negative = inhibition is reported as inconclusive: -36.9%. In the case of `CC(=O)Nc1nonc1NC(=O)CSC1=NCCS1`, the activity change (PNC), negative = inhibition is reported as inconclusive: -33.6%. In the case of `CCOC(=O)N1CCN(c2c(NCCCN(C)c3ccccc3)c(=O)c2=O)CC1`, the activity change (PNC), negative = inhibition is reported as inconclusive: -62.3%. With `COc1cc(OC)c(NC(=O)CCNS(=O)(=O)c2cc(Br)cnc2N)cc1Cl` the activity change (PNC), negative = inhibition was inconclusive: -39.2%. With `O=C(O)CCSc1nc2ccccc2s1` the activity change (PNC), negative = inhibition was inconclusive: -53.3%. For `O=C(COC(=O)c1ccc(Oc2ccccc2)cc1)Nc1nnc(-c2ccccc2)o1`, the activity change (PNC), negative = inhibition was inconclusive: -57.1%. In the case of `COCCNC(=O)c1ccc2ccccc2n1`, the activity change (PNC), negative = inhibition is reported as inconclusive: -60.7%. In the case of `Cc1cn(C2OC(COC(=O)c3ccccc3)C(OC(=O)c3ccccc3)C2OC(=O)c2ccccc2)c(=O)[nH]c1=O` (centres undefined), the activity change (PNC), negative = inhibition is reported as active: -119%. In the case of `O=[n+]1c2c(n([O-])c3c1CCC3)CCCC2`, the activity change (PNC), negative = inhibition is reported as inconclusive: -42.6%. With `O=C(OCc1cnc(Cl)s1)c1cccc(Cl)c1Cl` the activity change (PNC), negative = inhibition was inconclusive: -60.6%. For `O=C(NC1CCCC1)C1(c2ccccc2)CCN(S(=O)(=O)c2ccccc2)CC1`, the activity change (PNC), negative = inhibition was inconclusive: -50.7%. For `CCCOc1ccc(C(=O)NC(C)C(=O)O)cc1` (centres undefined), the activity change (PNC), negative = inhibition was active: -106%. With `CCN(C1CCCCC1)S(=O)(=O)c1ccc(C(=O)O)cc1` the activity change (PNC), negative = inhibition was inconclusive: -52.7%. In the case of `Cc1cccc(OCC(=O)NCC(=O)n2nc(C)cc2C)c1`, the activity change (PNC), negative = inhibition is reported as inconclusive: -36.2%.
